{"source": "PubChem BioAssay AID504764 – Drosophila RNAi Screening Center, 2011", "purpose": "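Genes whose knock-down alters Notch-dependent transcription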 (primary screen)", "cell system": "Drosophila Kc167 cells", "reagent": "long dsRNA against Drosophila genes", "time to read-out": "about 5 days (4 days dsRNA, then 24 h after transfection)", "treatment": "transfection of constitutively active membrane-tethered Notch lacking the extracellular domain, read 24 h later", "measured": "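Light from a Notch-responsive E(spl)m3 luciferase reporter under active Notch, with control-promoter and no-Notch reporter wells to normalise; raw counts from paired wells a and b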", "reading the numbers": "induced reporter light, run 1, well a and induced reporter light, run 1, well b: higher = more light from the Notch target reporter with active Notch; control promoter light, run 1, well a and control promoter light, run 1, well b: higher = more light from the viral control promoter (cell number, transfection, viability); uninduced reporter light, run 1, well a: higher = more light from the Notch target reporter without active Notch", "active means": "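Wells with low control signal or poorly matching duplicates excluded; duplicates averaged; per source plate, z beyond ±2 for induced/control log2 ratio or beyond ±1.8 for induced/uninduced marks a hit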", "calls": "active = modifier hit (raised or lowered Notch signal); inactive = not a hit", "note": "The screen tested about 22,000 reagents; shown is a random part of those with a known target gene and a result. Over the whole deposit, 403 (1.9%) got an active call. 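Unnormalised raw counts per well; ratio z-scores behind the hit calls and whether each hit raises or lowers signal are not deposited.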 Not given: the amount of reagent."}
{"Gene": "Epp", "amplicon": "DRSC14607", "induced reporter light, run 1, well a": 1.57e5, "induced reporter light, run 1, well b": 1.69e5, "control promoter light, run 1, well a": 2.17e5, "control promoter light, run 1, well b": 2.14e5, "uninduced reporter light, run 1, well a": 15188, "outcome": "inactive"}
{"Gene": "CG34319 (retired record)", "amplicon": "DRSC18138", "induced reporter light, run 1, well a": 17185, "induced reporter light, run 1, well b": 16600, "control promoter light, run 1, well a": 18585, "control promoter light, run 1, well b": 16988, "uninduced reporter light, run 1, well a": 4820, "outcome": "inactive"}
{"Gene": "CG9981", "amplicon": "DRSC20225", "induced reporter light, run 1, well a": 63745, "induced reporter light, run 1, well b": 64270, "control promoter light, run 1, well a": 77775, "control promoter light, run 1, well b": 80555, "uninduced reporter light, run 1, well a": 7170, "outcome": "inactive"}
{"Gene": "CG17292", "amplicon": "DRSC02594", "induced reporter light, run 1, well a": 1.18e5, "induced reporter light, run 1, well b": 1.23e5, "control promoter light, run 1, well a": 1.31e5, "control promoter light, run 1, well b": 1.29e5, "uninduced reporter light, run 1, well a": 8210, "outcome": "inactive"}
{"Gene": "CG17283", "amplicon": "DRSC15219", "induced reporter light, run 1, well a": 1.80e5, "induced reporter light, run 1, well b": 1.97e5, "control promoter light, run 1, well a": 1.69e5, "control promoter light, run 1, well b": 1.80e5, "uninduced reporter light, run 1, well a": 14005, "outcome": "inactive"}
{"Gene": "CG4045", "amplicon": "DRSC18518", "induced reporter light, run 1, well a": 1.35e5, "induced reporter light, run 1, well b": 1.68e5, "control promoter light, run 1, well a": 2.36e5, "control promoter light, run 1, well b": 2.12e5, "uninduced reporter light, run 1, well a": 11520, "outcome": "inactive"}
{"Gene": "BomT3", "amplicon": "DRSC13537", "induced reporter light, run 1, well a": 75000, "induced reporter light, run 1, well b": 67225, "control promoter light, run 1, well a": 71280, "control promoter light, run 1, well b": 69070, "uninduced reporter light, run 1, well a": 8240, "outcome": "inactive"}
{"Gene": "BomT3", "amplicon": "DRSC15871", "induced reporter light, run 1, well a": 1.38e5, "induced reporter light, run 1, well b": 1.52e5, "control promoter light, run 1, well a": 2.12e5, "control promoter light, run 1, well b": 2.25e5, "uninduced reporter light, run 1, well a": 11130, "outcome": "inactive"}
{"Gene": "Reg-5", "amplicon": "DRSC04647", "induced reporter light, run 1, well a": 1.82e5, "induced reporter light, run 1, well b": 1.58e5, "control promoter light, run 1, well a": 1.87e5, "control promoter light, run 1, well b": 1.89e5, "uninduced reporter light, run 1, well a": 11840, "outcome": "inactive"}
{"Gene": "CG5731", "amplicon": "DRSC02883", "induced reporter light, run 1, well a": 1.33e5, "induced reporter light, run 1, well b": 1.72e5, "control promoter light, run 1, well a": 86850, "control promoter light, run 1, well b": 1.23e5, "uninduced reporter light, run 1, well a": 17595, "outcome": "inactive"}
{"Gene": "ocm", "amplicon": "DRSC04360", "induced reporter light, run 1, well a": 98635, "induced reporter light, run 1, well b": 1.14e5, "control promoter light, run 1, well a": 1.00e5, "control promoter light, run 1, well b": 1.02e5, "uninduced reporter light, run 1, well a": 11855, "outcome": "active"}
{"Gene": "HLH54F", "amplicon": "DRSC07438", "induced reporter light, run 1, well a": 1.46e5, "induced reporter light, run 1, well b": 92770, "control promoter light, run 1, well a": 1.06e5, "control promoter light, run 1, well b": 1.00e5, "uninduced reporter light, run 1, well a": 8125, "outcome": "inactive"}
{"Gene": "CG10874", "amplicon": "DRSC00297", "induced reporter light, run 1, well a": 91605, "induced reporter light, run 1, well b": 1.06e5, "control promoter light, run 1, well a": 85265, "control promoter light, run 1, well b": 61260, "uninduced reporter light, run 1, well a": 7290, "outcome": "inactive"}
{"Gene": "dpp", "amplicon": "DRSC00118", "induced reporter light, run 1, well a": 1.41e5, "induced reporter light, run 1, well b": 1.12e5, "control promoter light, run 1, well a": 1.87e5, "control promoter light, run 1, well b": 2.18e5, "uninduced reporter light, run 1, well a": 9425, "outcome": "inactive"}
{"Gene": "dpp", "amplicon": "DRSC00121", "induced reporter light, run 1, well a": 1.20e5, "induced reporter light, run 1, well b": 1.10e5, "control promoter light, run 1, well a": 1.39e5, "control promoter light, run 1, well b": 1.72e5, "uninduced reporter light, run 1, well a": 8182, "outcome": "inactive"}
{"Gene": "dpp", "amplicon": "DRSC00813", "induced reporter light, run 1, well a": 1.36e5, "induced reporter light, run 1, well b": 1.04e5, "control promoter light, run 1, well a": 98970, "control promoter light, run 1, well b": 61265, "uninduced reporter light, run 1, well a": 9545, "outcome": "inactive"}
{"Gene": "pck", "amplicon": "DRSC18565", "induced reporter light, run 1, well a": 2.12e5, "induced reporter light, run 1, well b": 2.12e5, "control promoter light, run 1, well a": 2.86e5, "control promoter light, run 1, well b": 3.01e5, "uninduced reporter light, run 1, well a": 15975, "outcome": "inactive"}
{"Gene": "AstCC", "amplicon": "DRSC02404", "induced reporter light, run 1, well a": 1.42e5, "induced reporter light, run 1, well b": 1.37e5, "control promoter light, run 1, well a": 59985, "control promoter light, run 1, well b": 81335, "uninduced reporter light, run 1, well a": 17605, "outcome": "inactive"}
